Experimental findings from patent US20030187244A1 are described below.

Amino acid sequences for entries named in this document (tags omitted). Residues count along the entry.
UniProt P21730: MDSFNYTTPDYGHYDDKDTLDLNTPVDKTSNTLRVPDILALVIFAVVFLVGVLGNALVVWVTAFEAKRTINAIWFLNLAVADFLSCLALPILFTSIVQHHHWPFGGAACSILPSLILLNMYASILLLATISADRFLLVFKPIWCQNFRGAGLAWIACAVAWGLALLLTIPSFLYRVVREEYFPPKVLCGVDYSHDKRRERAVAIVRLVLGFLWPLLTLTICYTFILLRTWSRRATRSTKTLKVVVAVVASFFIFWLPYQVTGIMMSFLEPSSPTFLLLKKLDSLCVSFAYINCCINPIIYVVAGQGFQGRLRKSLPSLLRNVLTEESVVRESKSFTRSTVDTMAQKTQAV
UniProt P01031, residues 678-751: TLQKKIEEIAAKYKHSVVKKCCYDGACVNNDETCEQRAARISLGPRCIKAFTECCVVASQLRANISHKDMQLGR

These are yes or no findings as the source states them, for the method shown. Some results given as binding are weak or reduced against the parent protein; the word gives no strength.

In the experiment the target is C5aR (UniProt P21730). The experiment is described as follows: ligand binding to transfected cells expressing C5aR.

Take “C5a (from UniProt P01031 678-751) (ligand)”: the binding entry is “binds”.
